In the supplement of paper PMC12889115:
Some of the results follow. Values are raw readings; no control value is given beside them.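 In the initial screen, polymyxin B was used at a concentration that permeabilizes Salmonella's outer membrane but not its inner membrane. Maximum growth was set by DMSO wells with or without polymyxin B. Since plates varied, data were ranked per plate, and compounds giving the lowest OD600 advanced as hits.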

System: Salmonella enterica serovar Typhimurium SL1344
Assay: bacterial growth OD600 after 18 h with compound and polymyxin B; higher = more bacterial growth (less inhibition)
Conditions: 50 µM, Mueller-Hinton broth

| SMILES | bacterial growth OD600 (polymyxin B 1 µg/mL) | bacterial growth OD600 (polymyxin B 0.75 µg/mL) |
| --- | --- | --- |
| CCn1ncc(CN(C)CC2CCN(CCc3cccc(F)c3)CC2)c1C | 1.1 |  |
| COCCNC(=O)CCC1CCN(Cc2nc3ccccc3n2C)CC1 | 0.888 |  |
| COCCC(=O)N1CCC(Oc2ccc(C(=O)N(C)CCOC)cc2)CC1 |  | 0.974 |
| COCCN(Cc1ccccn1)C(Cc1ccccc1)C1CCN(Cc2ccc3nccnc3c2)CC1 (stereo not given) |  | 0.776 |
| COCCC(=O)NC1CCCN(CCc2ccccc2)C1 (stereo not given) | 1.23 |  |
| COCC1CCN(C(=O)CC2(c3ccccc3)CC(=O)N(CCCOc3cccnc3)C2=O)CC1 (stereo not given) |  | 0.795 |
| CCOC(=O)C1(Cc2ccccc2C)CCCN(Cc2cnc(N3CCOCC3)s2)C1 (stereo not given) | 0.904 |  |
| COc1ccc(CNC(=O)CCC2CCCN(C/C=C/c3ccco3)C2)c(OC)c1 (stereo not given) |  | 0.832 |
| O=C(C(c1ccccc1)c1ccccc1)N1CCOc2c(cc(-c3cccnc3)cc2OCCc2cccs2)C1 |  | 0.074 |
| O=C(NCCc1cccnc1)c1coc(COc2cccc(F)c2F)n1 |  | 0.815 |
| O=C(Cc1cccnc1)N1CCOc2ccc(C(O)C(c3ccccc3)c3ccccc3)cc2C1 (stereo not given) |  | 0.787 |
| Cc1ccc(C)c(C(=O)N2CCC3(CC2)CC3C(=O)NCc2cccc(C)n2)c1 (stereo not given) |  | 0.893 |
| COCCN1CCCC2(CCN(C(=O)NCc3ccccc3)C2)C1=O (stereo not given) | 0.961 |  |
| CCC(=O)C1CCCN(C(=O)CC2(c3ccccc3C)CC(=O)N(Cc3cccnc3)C2=O)C1 (stereo not given) |  | 0.815 |
| CN1CCCCC1C(=O)NCc1cccnc1N(C)C1CCCCC1 (stereo not given) | 0.903 |  |
| Cc1nc(N2CCC(C(=O)NCCC(C)C)CC2)nc2ccccc12 |  | 0.921 |
| COc1ccc(OC)c(-c2cc(Cl)c3c(c2)CC(CNC(=O)Cc2csc(C)n2)O3)c1 (stereo not given) |  | 0.562 |
| CCOC(=O)N1CCN(Cc2ccc3c(c2)CN(C(=O)Cn2ccc(C)n2)CCO3)CC1 |  | 0.786 |
| CCOc1ccccc1CN1CCN(Cc2cnn(C)c2C)CC1CCO (stereo not given) | 0.884 |  |
| O=C1CC(NS(=O)(=O)N2CCOCC2)CN1Cc1ccc(F)cc1 (stereo not given) | 0.921 |  |
| COc1cccc2c1OCCCN(Cc1nc(-c3ccccn3)no1)C2 | 0.935 |  |
| COc1ccc(-n2cc(CNC(CO)CO)c(-c3ccccc3Cl)n2)cc1 | 0.782 |  |
| CCN1CC(CN(C)Cc2nc(-c3ccccc3)no2)CC1=O (stereo not given) |  | 0.749 |
| COCCC(=O)N1CCC(Oc2ccc(C(=O)N3CCCO3)cc2)CC1 | 0.908 |  |
| CC(C)NC(=O)CN1CCN(Cc2nc(-c3ccccn3)no2)CC1 | 0.919 |  |
| Cc1cnc(C(=O)NC2CC(=O)N(CCc3ccccc3)C2)cn1 (stereo not given) | 1.06 |  |
| CCn1nc(C)c(CN2CCC3(CC2)c2ccccc2[C@@H](NC(=O)c2cccs2)[C@@H]3OC)c1C |  | 0.871 |
| Cc1ncc2c(c1CNC(=O)c1ccc3c(c1)OCO3)CCN(C(=O)C(C)Oc1ccccc1)C2 (stereo not given) |  | 0.703 |
| COc1cccc(CN(C)CC2CCCN(CCc3ccccc3F)C2)c1 (stereo not given) | 0.714 |  |
| COc1ccc(F)c(CN2CCOc3ccc(C(O)Cc4ccccc4)cc3C2)c1 (stereo not given) |  | 0.006 |

Reformatted: entries from further up.
SMILES	bacterial growth OD600 (polymyxin B 1 µg/mL)	bacterial growth OD600 (polymyxin B 0.75 µg/mL)
CCn1ncc(CN(C)CC2CCN(CCc3cccc(F)c3)CC2)c1C	1.1	
COc1cccc2c1OCCCN(Cc1nc(-c3ccccn3)no1)C2	0.935	
